Results are given in words; binding and its absence hold for the method and conditions named. In cells and extracts the contact can be indirect. Some results given as binding are weak or reduced against the parent protein; the word gives no strength. For part of these data: Where a sequence is shown, tags or fusion partners need not be part of it.
Tests used:
[1] = target: T1, TRPM1-NT-Nluc (mouse) (UniProt Q2TV84); test: FRET or BRET; HEK293T/17 cells, fixed amount of Nanoluc-fused TRPM1 fragment (donor), increasing Venus-fused G-protein subunit (acceptor); titration of acceptor/donor ratio; read 24 h after transfection in PBS with 0.5 mM MgCl2 and 0.1% glucose, room temperature
T1 sequence: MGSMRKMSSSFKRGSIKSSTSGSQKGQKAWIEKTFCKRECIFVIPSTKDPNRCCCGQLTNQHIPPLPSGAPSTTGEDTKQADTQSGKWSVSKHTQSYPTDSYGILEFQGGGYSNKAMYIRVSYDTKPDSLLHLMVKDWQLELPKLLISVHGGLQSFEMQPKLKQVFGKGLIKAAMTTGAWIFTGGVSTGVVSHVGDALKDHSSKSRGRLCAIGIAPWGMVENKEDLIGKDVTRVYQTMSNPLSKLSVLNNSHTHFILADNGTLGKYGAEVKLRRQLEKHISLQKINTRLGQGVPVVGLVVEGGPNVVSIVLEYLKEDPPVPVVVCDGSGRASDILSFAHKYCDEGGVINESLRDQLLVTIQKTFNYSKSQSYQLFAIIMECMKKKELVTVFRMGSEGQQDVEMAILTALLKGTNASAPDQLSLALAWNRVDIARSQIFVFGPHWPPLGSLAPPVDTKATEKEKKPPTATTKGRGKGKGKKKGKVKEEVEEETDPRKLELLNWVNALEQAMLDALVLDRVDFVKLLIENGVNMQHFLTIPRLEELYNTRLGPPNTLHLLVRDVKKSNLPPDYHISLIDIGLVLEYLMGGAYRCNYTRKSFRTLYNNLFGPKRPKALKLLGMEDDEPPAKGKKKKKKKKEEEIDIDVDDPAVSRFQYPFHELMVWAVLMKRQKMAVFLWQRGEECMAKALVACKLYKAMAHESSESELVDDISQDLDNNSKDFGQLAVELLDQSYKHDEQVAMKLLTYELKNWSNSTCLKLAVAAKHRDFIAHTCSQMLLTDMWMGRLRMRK

[2] = target: T2, TRPM1-CT-Nluc (mouse) (UniProt Q2TV84); test: as above
T2 sequence: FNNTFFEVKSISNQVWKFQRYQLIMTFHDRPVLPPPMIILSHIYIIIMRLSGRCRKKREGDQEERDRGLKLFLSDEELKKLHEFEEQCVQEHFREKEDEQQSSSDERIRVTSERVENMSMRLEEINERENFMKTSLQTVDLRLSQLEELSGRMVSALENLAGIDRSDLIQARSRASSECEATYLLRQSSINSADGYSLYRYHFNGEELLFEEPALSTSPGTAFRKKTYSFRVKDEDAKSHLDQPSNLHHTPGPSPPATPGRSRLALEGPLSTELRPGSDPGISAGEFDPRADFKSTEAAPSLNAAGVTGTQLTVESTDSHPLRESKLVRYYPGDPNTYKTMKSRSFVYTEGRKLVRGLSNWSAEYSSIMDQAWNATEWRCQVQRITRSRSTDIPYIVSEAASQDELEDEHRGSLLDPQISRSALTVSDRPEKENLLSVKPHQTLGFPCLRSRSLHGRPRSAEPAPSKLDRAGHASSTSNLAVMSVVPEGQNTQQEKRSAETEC

[3] = target: mouse TRPM1 full-length (mouse) (UniProt Q2TV84); test: co-IP; HEK293T co-transfected with TRPM1, Gαo, Gβ3 and Gγ13; lysed in PBS IP buffer (150 mM NaCl, 1% Triton X-100, 5 mM MgCl2) with GDP, GDP/AlF4 or GTPγS; TRPM1 precipitated with sheep anti-TRPM1 and protein G, room temperature, 1 hour; Western blot

Row | binding [1] | binding [2] | binding [3] | Substance
1 | binds | binds |  | Venus-Gαo1 (from UniProt P09471-1 1-354)
2 |  |  | binds | rat Gαo1 (from UniProt P59215-1 1-354)
